Results deposited as PubChem BioAssay AID1259308 (NCATS, 2017).

Aim: 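Knock-downs that increase output of a recombinant reporter protein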 (primary screen)
System: human HEK293 embryonic kidney cells stably expressing firefly luciferase (HEK-CMV-Luc2-Hygro)
Reagent: single siRNA against human genes, 0.8 pmol siRNA per well
Duration: 72 h
Detection: 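Luciferase light (ONE-Glo) measured on one replicate plate set and viability (CellTiter-Glo) on the other, scaled to a negative control siRNA, with robust z-scores and luciferase per cell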
Scale: total luciferase, z-score: higher = more reporter protein produced
Active means: 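An siRNA counts as active if its total luciferase robust z-score exceeds 3; genes with two or more such siRNAs out of three were retested with fresh siRNAs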
Calls: active = raised luciferase; inactive = no rise
Shown is a random part of about 59,000 deposited reagents. In the full data, about 1,510 (2.6%) were called active. 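Calls use total luciferase alone and ignore viability, so some active siRNAs may act by altering cell number.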 Entries without a mark were called inactive. Further read-outs or replicates are left out here.

total luciferase, z-score, by gene and reagent
NSMCE1: SID160760716 0.446; SID160760717 -0.67; SID160760718 0.634
SCNM1: SID160748464 -2.23; SID160748466 0.306; SID160748467 -0.489
FAM230A: SID160770960 1.25; SID160770961 -0.754; SID160770962 1.69
KCTD16: SID160746185 -0.0691; SID160746187 0.175; SID160746188 0.872
METTL4: SID160748100 0.747; SID160748101 0.25; SID160748102 -1.79
GSTA12P: SID160734034 -1.02; SID160770150 -0.179; SID160770151 -0.135
HARBI1: SID160732922 -0.046; SID160762840 0.74; SID160762841 -1.27
SLC18A1: SID160716964 1.27; SID160716965 -1.14; SID160716966 -0.608
LMCD1: SID160739463 1.49; SID160739464 -0.455; SID160739466 0.229
OR6C68: SID160767499 -0.701; SID160767500 -0.381; SID160767501 -0.599
TRAPPC3: SID160738360 1.12; SID160738361 2.76; SID160738362 -0.68
MARK4: SID160746708 0.721; SID160746709 0.338; SID160746710 0.944
WFDC1: SID160746791 2.55; SID160746792 0.757; SID160746793 -1.59
FCRLB: SID160756692 0.373; SID160756693 0.0574; SID160756694 -0.552
MXRA7: SID160728005 1.76; SID160728006 -0.912; SID160728007 -1.92
RSPH14: SID160738479 -0.023; SID160738480 -0.62; SID160738481 1.02
NMNAT1: SID160748022 -0.117; SID160748023 -1.26; SID160748024 -0.547
NAT2: SID160776689 -0.452; SID160776700 0.114; SID160776711 -0.624
LINC01587: SID160725957 2.79; SID160725970 -1.47; SID160732265 0.677
